The list shows a part of the results. Values are raw readings; no control value is given beside them.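 In the initial screen, polymyxin B was used at a concentration that permeabilizes Salmonella's outer membrane but not its inner membrane. Maximum growth was set by DMSO wells with or without polymyxin B. Since plates varied, data were ranked per plate, and compounds giving the lowest OD600 advanced as hits.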
Tested on: Salmonella enterica serovar Typhimurium SL1344
Experiment: bacterial growth OD600 after 18 h with compound and polymyxin B; higher = more bacterial growth (less inhibition)
Details: 50 µM, Mueller-Hinton broth

| SMILES | bacterial growth OD600 (polymyxin B 1 µg/mL) | bacterial growth OD600 (polymyxin B 0.75 µg/mL) |
| --- | --- | --- |
| CN(CC1Cc2ccccc2O1)C(=O)c1cn(Cc2ccccc2F)nn1 (configuration not stated) | 0.856 |  |
| Cc1occc1C(=O)N1CCC(CCC(=O)N2CCN(c3ccccc3)CC2)CC1 | 0.919 |  |
| O=C(c1ccc(N2CCSCC2)nc1)N1CCC(CCn2cccn2)CC1 |  | 0.879 |
| O=C(NC1CC(=O)N(CCc2ccccc2)C1)C1CCCC1 (configuration not stated) | 1.12 |  |
| O=C(c1cccnc1)N1CCCC(CCc2ccc(F)c(F)c2)C1 (configuration not stated) |  | 0.153 |
| CC#CC(=O)N1CCc2[nH]nc(-c3cccc(OC)c3)c2C1 |  | 0.675 |
| Cc1cc(O)nc(CNC(=O)C2(N3C[C@@H](C)O[C@@H](C)C3)Cc3ccccc3C2)n1 | 1.06 |  |
| CO[C@H]1[C@H](NC(=O)c2ccncc2)c2ccccc2C12CCN(C(=O)C1=NN(C)C(=O)CC1)CC2 |  | 0.816 |
| O=C(c1ccc2[nH]nnc2c1)N1CCOC(CCc2ccccc2)C1 (configuration not stated) |  | 0.786 |
| Cc1nc(N2CCC(C(=O)NCC(C)c3ccccc3)CC2)nc2cc3c(cc12)CCC3 (configuration not stated) |  | 0.71 |
| Cc1ccc(OCCN(C)C(=O)C2CC23CCN(Cc2c(C)[nH]c4ccccc24)CC3)cc1 (configuration not stated) |  | 0.914 |
| Cc1cc(C(=O)N2CCC(CCC(=O)NC3CCN(Cc4ccccc4)C3)CC2)n[nH]1 (configuration not stated) | 0.948 |  |
| Cc1cc(C)nc(CCNC(=O)c2ccc(OC3CCN(C(=O)C4CC4)CC3)cc2)n1 | 1.25 |  |
| COc1ccc2c(c1)OC(C)CN(CCNC(=O)CCc1nc3ccccc3s1)C2 (configuration not stated) |  | 0.822 |
| COc1ccc(C(=O)CCC(=O)NCC2CC(Cc3cccc(F)c3)=NO2)cc1 (configuration not stated) |  | 0.845 |
| COc1ccc(S(=O)(=O)NCC2CCCN(Cc3ccc(C)s3)C2)cc1 (configuration not stated) | 0.791 |  |

| SMILES | bacterial growth OD600 (polymyxin B 1 µg/mL) | bacterial growth OD600 (polymyxin B 0.75 µg/mL) |
| --- | --- | --- |
| CCCCn1c(CN2CCCCC2CC(=O)OCC)cnc1S(=O)(=O)CC (configuration not stated) |  | 0.96 |
| CS(=O)(=O)NC1CC(=O)N(CC2CCCCC2)C1 (configuration not stated) | 1.06 |  |
| O=C1O[C@@H]2CN(Cc3ccc(OCCO)cc3)C[C@@H]2N1C1CCCC1 |  | 0.855 |
| COc1cc2nc(N(C)C)c(CNCc3cccc(F)c3)cc2c(OC)c1OC |  | 0.742 |
| Cc1noc(C)c1CCC(=O)NC1CCCN(c2ccc(C(F)(F)F)cn2)C1 (configuration not stated) | 0.84 |  |
| CN(C)CCC1CN(C(=O)CCc2ccsc2)CCO1 (configuration not stated) |  | 0.908 |
| COc1cc(C(=O)N(C)CCOc2ccc(C)cc2)ccc1OC1CCN(C(C)=O)CC1 |  | 0.887 |
| COC(=O)c1ccc(C(=O)N2CCc3onc(-c4ccccc4F)c3C2)nc1 |  | 0.922 |
| CN(C(=O)CC(c1ccccc1)c1cccc(Cl)c1)C1CCOCC1 (configuration not stated) | 0.01 |  |
| CCOC(=O)C1(Cc2ccc(F)cc2)CCCN(C(=O)c2ccc(F)cc2)C1 (configuration not stated) | 0.726 |  |
| COCC(=O)Nc1cc(C(=O)N[C@H](C)c2ccc(OC)cc2)cc2nc(-c3cccnc3)n(C)c12 |  | 0.8 |
| Cc1nn(C)c(C)c1CN(C(=O)Cn1nnnc1CN1CCC(C)CC1)C1CC1 | 0.962 |  |
| Cc1ncc2c(c1CNC(=O)/C=C/c1ccccc1F)CCN(C(=O)/C=C/C(C)C)C2 |  | 0.853 |
| Cc1csc(CNC(=O)CC(c2cccc(O)c2)c2cccc(Cl)c2)n1 (configuration not stated) |  | -0.005 |
| Cc1cccc(C(=O)N2CCC(C3(CCC(C)C)NC(=O)N(Cc4ccccn4)C3=O)CC2)c1C (configuration not stated) |  | 0.929 |
| CC(C)n1cc(CNC2CCCc3nc(-c4ccccc4)ncc32)cn1 (configuration not stated) | 0.846 |  |

Arranged by length of the SMILES (ascending): 3 of the compounds above.

| SMILES | bacterial growth OD600 (polymyxin B 1 µg/mL) | bacterial growth OD600 (polymyxin B 0.75 µg/mL) |
| --- | --- | --- |
| Cc1noc(C)c1CCC(=O)NC1CCCN(c2ccc(C(F)(F)F)cn2)C1 (configuration not stated) | 0.84 |  |
| Cc1ncc2c(c1CNC(=O)/C=C/c1ccccc1F)CCN(C(=O)/C=C/C(C)C)C2 |  | 0.853 |
| Cc1ccc(OCCN(C)C(=O)C2CC23CCN(Cc2c(C)[nH]c4ccccc24)CC3)cc1 (configuration not stated) |  | 0.914 |

Reference: the supplement of paper PMC12889115
